Primary screen of a compound library

T. brucei: 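Whole-parasite assay of Trypanosoma brucei over 72 hours; the read-out is not stated. Concentration: 30 µM. Direction is inferred from retests: higher values go with stronger inhibition. Values scatter widely below zero; nearly all retest evidence comes from the higher of the two concentrations used. About 64,000 compounds were tested under these conditions; 1.5% (about 940) showed 50% or more at least once.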
Toxoplasma: 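Assay of Toxoplasma gondii numbers, read through their beta-galactosidase reporter with a colour substrate. Concentration: 10 µM. The record gives no direction; the compounds picked for IC50 retests had high values, so higher reads as fewer parasites. About 67,000 compounds were tested under these conditions; 0.38% (about 260) showed 50% or more at least once.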

Values are the deposited “Percent Effect”, in %.
How 0% and 100% were set is not recorded. Most values in the screen are low, and negative values occur.
This is an unselected part of the compounds tested.

- CC(C)OCCCNC(=O)CN1CCN(c2nccs2)CC1 | T. brucei: -49.68%; Toxoplasma: 13.94%
- Cc1cc(N2CCCC(c3nccnc3N(C)C)C2)ncn1 (configuration not stated) | T. brucei: 1.405%; Toxoplasma: 18.4%
- Cc1ccc(NS(=O)(=O)c2cccc(C#N)c2)c(CN(C)C)c1 | T. brucei: 12.5%; Toxoplasma: 17.21%
- C=C(C)COc1ccccc1CNC(CC)c1ccnn1C (configuration not stated) | T. brucei: -37.7%; Toxoplasma: -34.79%
- NC(=O)c1ccc(CNC(=O)NCc2cc[nH]n2)cc1 | T. brucei: -11.72%; Toxoplasma: -0.946%
- Cc1ccc2nc(C3CCN(CC4CC4)CC3)nn2c1.O=C(O)C(F)(F)F | T. brucei: -43.87%; Toxoplasma: -3.402%
- CCCS(=O)(=O)NC(C)C(=O)NCc1ccc(N2CCN(C)CC2)nc1 (configuration not stated) | T. brucei: -21.24%; Toxoplasma: 7.575%
- CCC(CC)C(=O)N1CCCc2c(cnn2C)C1 | T. brucei: -22.73%; Toxoplasma: -11.68%
- CCN1CCCC(NC(=O)CCn2c(C(F)F)cc3cccnc32)C1 (configuration not stated) | T. brucei: -4.021%; Toxoplasma: 15.43%
- O=C(NCc1ccc(-n2cncn2)nc1)c1cc(Cl)ccn1 | T. brucei: -21.62%; Toxoplasma: 25.64%
- CC(C)c1nccn1C(C)C(=O)NC1Cc2ccccc2C1 (configuration not stated) | T. brucei: -6.97%; Toxoplasma: -7.87%
- CO[C@@H]1CCN(Cc2ccoc2)[C@H]1Cc1ccccc1.O=C(O)C(F)(F)F | T. brucei: -4.532%; Toxoplasma: -3.895%
- Cc1nn(C)c(Cl)c1C1CCCN1Cc1nc(-c2ccco2)no1 (configuration not stated) | T. brucei: -9.436%; Toxoplasma: -6.509%
- [H][C@@]12C[C@H](C(=O)N(C)C)[C@@]([H])(CN(S(=O)(=O)c3cccc(C)c3)C1)O2 | T. brucei: -58.4%; Toxoplasma: 0.3723%
- CCN(CC)C(=O)C1CCC2(CCNCC2)CO1.Cl (configuration not stated) | T. brucei: -17.57%; Toxoplasma: -6.456%
- [H][C@@]12CS(=O)(=O)C[C@]1([H])N(C(=O)Cc1ccc(F)c(C)c1)CCN2C | T. brucei: -16.76%; Toxoplasma: 5.323%
- c1cnn(CC2CN(c3ncnc4sccc34)CCO2)c1 (configuration not stated) | T. brucei: 0.3051%; Toxoplasma: 8.576%
- COCCN1CCCC(c2ncc(C(=O)N3CCOCC3)c(C)n2)C1 (configuration not stated) | Toxoplasma: 6.395%
- Cn1c(=O)c2c(n3ncnc13)NC(=O)CC2c1cccc(F)c1 (configuration not stated) | Toxoplasma: 1.023%
- [H][C@@]12CN(c3ncccn3)C[C@H](C(=O)NCCOC)[C@]1([H])CCO2 | T. brucei: -17.23%; Toxoplasma: 19.8%
- CC(C)(C)C(=O)c1ccsc1NC(=O)CCNC(=O)c1ccco1 | T. brucei: -5.094%; Toxoplasma: 3.414%
- Cc1cnn(CC2CCCN2C(=O)c2cnc(-c3ccco3)s2)c1 (configuration not stated) | T. brucei: 1.289%; Toxoplasma: -10.75%
- COc1cccc(CNC(=O)CCOc2ccccc2C)c1 | T. brucei: -34.68%; Toxoplasma: 3.837%
- Cc1ccc(CN2CCC3(C2)C(=O)N(CC(N)=O)c2ccccc23)s1 (configuration not stated) | T. brucei: -6.982%; Toxoplasma: 6.895%
- Cc1ccc2nnc(C(=O)NCC3CCCC3)nc2c1 | T. brucei: -9.386%; Toxoplasma: 23.31%
- CCn1cc2c(n1)CN(Cc1ccncc1)CC2COCC1CC1.O=C(O)C(F)(F)F.O=C(O)C(F)(F)F (configuration not stated) | T. brucei: 16.48%; Toxoplasma: 3.383%
- COc1ccc(-n2nnc(C(=O)O)c2-c2ccccn2)cc1 | T. brucei: -18.65%; Toxoplasma: 41.58%
- Cn1c(C(F)(F)F)nn(CCNC(=O)Nc2ccccc2Cl)c1=O | T. brucei: -18.52%; Toxoplasma: -4.299%
- CN(CCC1CCOCC1)C(=O)C1CCC(=O)N(Cc2ccccn2)C1 (configuration not stated) | T. brucei: -16.86%; Toxoplasma: -22.1%
- COc1ccc(S(=O)(=O)NCCC(=O)NCc2ccoc2)cc1OC | T. brucei: 31.91%; Toxoplasma: 18.37%
- COc1ccc(C)cc1C(=O)N1C[C@@H](CN(C)CCO)[C@@H](CO)C1 | T. brucei: -36.51%; Toxoplasma: 14.88%
- NCC(CO)Cc1ccc(C(F)(F)F)cc1 (configuration not stated) | T. brucei: -1.965%; Toxoplasma: 2.639%
- CC1CN(CC(=O)NCCc2ccncc2)Cc2ccccc2O1 (configuration not stated) | T. brucei: -57.69%; Toxoplasma: -6.749%

For reference, 3 entries once more:

compound	T. brucei	Toxoplasma
Cc1cc(N2CCCC(c3nccnc3N(C)C)C2)ncn1 (configuration not stated)	1.405%	18.4%
CCCS(=O)(=O)NC(C)C(=O)NCc1ccc(N2CCN(C)CC2)nc1 (configuration not stated)	-21.24%	7.575%
CC1CN(CC(=O)NCCc2ccncc2)Cc2ccccc2O1 (configuration not stated)	-57.69%	-6.749%

Measurements from “University of Dundee, Small-Polar-MMV Screening Library” (2021), ChEMBL document CHEMBL3988442.